Consider one molecule from doi:10.1101/2023.09.14.557805, “Determinants of DDX3X sensitivity uncovered using a helicase activity in translation reporter” (bioRxiv, 2023).

Results are given in words; binding and its absence hold for the method and conditions named.

The assay deals with T1, S. cerevisiae eIF4E (S. cerevisiae, UniProt P07260 1-213).
T1 construct: eIF4E of S. cerevisiae; 15N isotope labelled; m7GTP added to 250 μM in the NMR sample; source: E. coli BL21-star, purified (nickel resin, TEV cleavage, m7G cap resin)
T1 sequence (looked up): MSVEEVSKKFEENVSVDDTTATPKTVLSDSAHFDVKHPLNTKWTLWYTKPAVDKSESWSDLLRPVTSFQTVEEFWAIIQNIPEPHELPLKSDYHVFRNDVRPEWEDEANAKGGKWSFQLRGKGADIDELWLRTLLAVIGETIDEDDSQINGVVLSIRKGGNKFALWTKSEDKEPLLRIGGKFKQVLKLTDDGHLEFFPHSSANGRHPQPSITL
Description: NMR titration; 15N HSQC of 200 μM 15N eIF4E with 250 μM m7GTP, peptide added to 1 mM; 50 mM phosphate pH 6.5, 50 mM KCl, 10% D2O, 298 K, 900 MHz; both purified.

As for ASKGRYIPPHLRNREATKGAA [DDX3X 33–51 peptide], the binding entry is listed as “no binding (tested: 1 mM)”.
